Data as given in PubChem BioAssay AID743454 (Peter MacCallum Cancer Centre, 2014).
Here is an unselected part of about 18,000 reagents tested. Of all reagents, 450 (2.5%) were called active. 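Single biological run; no consistent viability z cut-off exists, so the class columns, not z-scores, define the calls.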

- Purpose: 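Knock-downs lowering viability or raising caspase 3/7 activity in vorinostat-treated resistant cells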 (primary screen)
- System: human HCT116-VR colon cancer cells, selected for vorinostat resistance
- Reagent: siRNA pool against human genes, 40 nM siRNA pool
- Timing: vorinostat for 24 h, read-out about 72 h after transfection
- Treatment: vorinostat at 2.5 µM final
- Measurement: 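Cell viability by CellTiter-Fluor and caspase 3/7 activity by luminescence, each scaled to mock wells per plate, duplicates averaged, then robust z-scored over all plates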
- Scale: viability robust z-score: higher = more viable cells than screen typical; caspase robust z-score: higher = more caspase 3/7 activity than screen typical
- Rule for the call: 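Hits are knock-downs in viability class RV1/RV2 or caspase class CA1/CA2, excluding ones that killed cells in the no-drug cell-count arm; hits then retested with single siRNAs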

gene,viability hit class,caspase hit class,viability robust z-score,caspase robust z-score,Call
LARS1,no change,no change,-1.05,0.94,inactive
ATP6V1C1,no change,no change,-2.79,0.89,inactive
ZNF253,no change,no change,0.52,-0.46,inactive
FXYD6,no change,no change,-1.4,0.75,inactive
RTN4RL1,no change,no change,-1.99,1.93,inactive
CYP1A2,no change,no change,-1.61,2.05,inactive
CPPED1,no change,no change,-0.06,-0.84,inactive
RNF6,no change,no change,0.48,0.17,inactive
HADHA,no change,no change,-0.19,-0.33,inactive
ARHGAP6,no change,no change,-0.1,-0.99,inactive
RGS4,no change,no change,0.28,-0.52,inactive
DSCAML1,no change,no change,-0.74,0.88,inactive
SLC41A3,no change,no change,1.15,-0.22,inactive
ENTPD8,no change,no change,1.23,-0.41,inactive
ABTB1,no change,no change,0.22,-1.1,inactive
STMN1,no change,no change,-0.66,0.31,inactive
NVL,no change,no change,-1.4,-1.28,inactive
LMNTD1,no change,no change,-0.56,-0.16,inactive
INTS14,no change,no change,0.49,2.67,inactive
LRRC14B,no change,no change,0.66,0.02,inactive
CUL1,no change,no change,0.05,2.37,inactive
CBLL1,no change,no change,0.56,-0.39,inactive
RASAL1,no change,no change,0.04,0.38,inactive
PCDHGB7,no change,no change,-0.4,-0.26,inactive
ZFYVE1,no change,no change,0.44,0.14,inactive
DAND5,no change,no change,0.12,1.92,inactive
ABCC10,no change,no change,0.44,1.99,inactive
TRMT112,no change,no change,-0.25,-0.86,inactive
FLT3LG,no change,no change,0.54,0.85,inactive
LAIR2,no change,no change,-0.68,0.09,inactive
WLS,no change,no change,0.46,-0.6,inactive
TMEM125,no change,no change,-0.82,-1.35,inactive
KLRG1,no change,no change,0.26,1.48,inactive
ADD1,no change,no change,0.4,-0.3,inactive
NOLC1,no change,no change,-0.82,1.42,inactive
SYT8,no change,CA1 (caspase activation),0.13,5.27,active
MSRB3,no change,no change,-1.67,0.01,inactive
MTMR6,no change,no change,1.72,0.23,inactive
DHRS3,no change,no change,0.56,-0.09,inactive
BCL7A,no change,no change,1.46,3.9,inactive
SWSAP1,no change,no change,1.6,0.53,inactive
SLC8A1,no change,no change,0.5,-0.33,inactive
CD19,no change,no change,-2.21,-1.05,inactive
H2BW1,no change,no change,-0.74,-0.68,inactive
SHOX2,no change,no change,-0.08,1.04,inactive
TCL6,no change,no change,-1.41,0.5,inactive
PFDN1,no change,no change,0.44,0.65,inactive
FRK,no change,no change,-1.16,0.28,inactive
ANO10,no change,no change,-1.05,2.28,inactive
SPP1,no change,no change,0.9,0.44,inactive
EPC2,no change,no change,-0.2,0.11,inactive
DHX57,no change,no change,-0.35,-0.62,inactive
ASF1A,no change,no change,0.32,-0.6,inactive
TRIM64B,no change,no change,-0.6,3.3,inactive
SUOX,no change,no change,-1.65,0.96,inactive
BKGD,no change,no change,0.24,-0.79,inactive
CDR1,no change,no change,-0.99,-1.06,inactive
USP21,no change,no change,-0.9,0.09,inactive
CDO1,no change,no change,-0.41,-0.11,inactive
RAD9B,no change,no change,-0.52,1.74,inactive
MAOA,no change,no change,-2.15,-0.59,inactive
SAMSN1,no change,no change,-0.31,-0.9,inactive
MAGEH1,no change,no change,-1.66,4.67,inactive
MED11,no change,no change,-0.56,0.64,inactive
HTR3E,no change,no change,0.28,-0.45,inactive
MT1E,no change,no change,0.61,-0.62,inactive
DYNLRB1,no change,no change,-0.21,-0.31,inactive
ART1,no change,no change,0.38,1.21,inactive
PTCD1,no change,no change,0.34,-0.25,inactive
ALDH3B2,no change,no change,0.71,-0.61,inactive
ERMP1,no change,no change,0.98,-0.94,inactive
ZBED10P,no change,no change,0.9,1.83,inactive
DHDH,RV2 (reduced viability),no change,-3.15,1.25,active

3 entries from above, ordered by “viability robust z-score”, high to low:
gene,viability hit class,caspase hit class,viability robust z-score,caspase robust z-score,Call
RNF6,no change,no change,0.48,0.17,inactive
ARHGAP6,no change,no change,-0.1,-0.99,inactive
HADHA,no change,no change,-0.19,-0.33,inactive
